PubChem BioAssay AID1259308 – NCATS | 2017
Screen: 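Knock-downs that increase output of a recombinant reporter protein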 (primary screen). Cells: human HEK293 embryonic kidney cells stably expressing firefly luciferase (HEK-CMV-Luc2-Hygro). Reagent: single siRNA against human genes, 0.8 pmol siRNA per well. Duration: 72 h. Detection: 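Luciferase light (ONE-Glo) measured on one replicate plate set and viability (CellTiter-Glo) on the other, scaled to a negative control siRNA, with robust z-scores and luciferase per cell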. Scale: total luciferase, z-score and total luciferase, % of control: higher = more reporter protein produced; luciferase per cell, z-score: higher = more reporter output per viable cell; viable cells, % of control: higher = more viable cells. Rule for the call: 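An siRNA counts as active if its total luciferase robust z-score exceeds 3; genes with two or more such siRNAs out of three were retested with fresh siRNAs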. Calls: active = raised luciferase; inactive = no rise.
Here is one part, drawn at random, of about 59,000 reagents. About 1,510 of all reagents (2.6%) count as active. 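Calls use total luciferase alone and ignore viability, so some active siRNAs may act by altering cell number.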 Reagents against one gene are numbered here. No sequences are given here.

target	siRNA no.	total luciferase, z-score	total luciferase, % of control	luciferase per cell, z-score	viable cells, % of control	call
ARL14EPL	1	0.132	84.5	-0.225	100	inactive
ARL14EPL	2	1.87	119	1.62	86.9	inactive
ARL14EPL	3	-0.347	75	-0.307	90.8	inactive
SEC24D	1	0.0745	83.4	-0.389	103	inactive
SEC24D	2	0.482	91.5	0.482	90	inactive
SEC24D	3	1.7	116	1.85	79.4	inactive
DCUN1D2	1	0.347	88.8	0.611	84.5	inactive
DCUN1D2	2	-0.527	71.4	-0.557	92.4	inactive
DCUN1D2	3	-0.232	77.3	0.568	74.4	inactive
CEACAM7	1	-1.71	47.9	-1.38	77	inactive
CEACAM7	2	-1.01	61.9	-0.584	80.6	inactive
CEACAM7	3	1.49	112	1.02	95.2	inactive
MYSM1	1	1.21	106	0.959	92	inactive
MYSM1	2	-0.474	72.5	-0.709	97.6	inactive
MYSM1	3	1.3	108	0.267	112	inactive
MIR663AHG	1	-0.0645	80.6	0.6	76.9	inactive
MIR663AHG	2	-0.0494	80.9	0.217	85.4	inactive
MIR663AHG	3	-0.0133	81.6	-0.0425	92.2	inactive
LENG9	1	-0.529	71.4	0.113	77.4	inactive
LENG9	2	-0.458	72.8	-0.668	97	inactive
LENG9	3	-0.7	68	0.247	71.2	inactive
AGFG2	1	4.89	179	2.96	91.9	active
AGFG2	2	-0.0276	81.3	-0.533	105	inactive
AGFG2	3	-0.576	70.4	-0.754	96	inactive
HTRA1	1	0.662	95.1	-0.32	116	inactive
HTRA1	2	1.46	111	1.2	90.5	inactive
HTRA1	3	-0.3	75.9	-0.785	104	inactive
RPS18P12	1	0.387	89.6	0.54	86.8	inactive
RPS18P12	2	0.0553	83	0.41	83.3	inactive
RPS18P12	3	-0.359	74.7	-0.714	101	inactive
ATP6V1G2	1	-0.421	73.5	0.18	78.3	inactive
ATP6V1G2	2	0.653	94.9	0.0258	105	inactive
ATP6V1G2	3	0.061	83.1	-0.173	97.2	inactive
MRGPRX1	1	2.35	129	1.82	88.9	inactive
MRGPRX1	2	1.95	121	1.6	88.4	inactive
MRGPRX1	3	-0.254	76.8	-0.632	101	inactive
C15orf32	1	0.00364	82	-0.38	101	inactive
C15orf32	2	1.72	116	1.45	88.6	inactive
C15orf32	3	0.896	99.7	0.371	101	inactive
WDR47	1	-0.686	68.3	-0.911	97	inactive
WDR47	2	1.28	107	1.09	90.1	inactive
WDR47	3	0.139	84.6	-0.575	110	inactive
RIPOR1	1	-0.378	74.4	-0.685	99.5	inactive
RIPOR1	2	0.76	97	0.702	90.1	inactive
RIPOR1	3	-0.261	76.7	0.427	76.6	inactive
MRPL55	1	-0.651	68.9	-0.357	84.6	inactive
MRPL55	2	0.144	84.8	0.448	84.2	inactive
MRPL55	3	0.262	87.1	-0.0473	98.6	inactive
XYLT1	1	-1.24	57.2	-1.26	89	inactive
XYLT1	2	0.414	90.1	0.451	89.4	inactive
XYLT1	3	0.0784	83.4	-0.477	106	inactive
CCDC24	1	0.292	87.7	0.173	93.6	inactive
CCDC24	2	-0.466	72.6	0.177	77.4	inactive
CCDC24	3	0.734	96.5	0.187	103	inactive
EFCAB6	1	0.167	85.2	-0.595	111	inactive
EFCAB6	2	0.0202	82.3	0.361	83.6	inactive
EFCAB6	3	-1.79	46.3	-2	87.7	inactive

8 successive records already listed, for reference:
target	siRNA no.	total luciferase, z-score	total luciferase, % of control	luciferase per cell, z-score	viable cells, % of control	call
ATP6V1G2	3	0.061	83.1	-0.173	97.2	inactive
MRGPRX1	1	2.35	129	1.82	88.9	inactive
MRGPRX1	2	1.95	121	1.6	88.4	inactive
MRGPRX1	3	-0.254	76.8	-0.632	101	inactive
C15orf32	1	0.00364	82	-0.38	101	inactive
C15orf32	2	1.72	116	1.45	88.6	inactive
C15orf32	3	0.896	99.7	0.371	101	inactive
WDR47	1	-0.686	68.3	-0.911	97	inactive
